According to the supplement of paper PMC3334620:
Over roughly 33,000 sequences, “E-score (-0.5 to 0.5)” has its median near -0.0034; the highest 2% begin near 0.25. This is one part of the list.

Target: T1, Yap3 (UniProt P38749)
T1 sequence: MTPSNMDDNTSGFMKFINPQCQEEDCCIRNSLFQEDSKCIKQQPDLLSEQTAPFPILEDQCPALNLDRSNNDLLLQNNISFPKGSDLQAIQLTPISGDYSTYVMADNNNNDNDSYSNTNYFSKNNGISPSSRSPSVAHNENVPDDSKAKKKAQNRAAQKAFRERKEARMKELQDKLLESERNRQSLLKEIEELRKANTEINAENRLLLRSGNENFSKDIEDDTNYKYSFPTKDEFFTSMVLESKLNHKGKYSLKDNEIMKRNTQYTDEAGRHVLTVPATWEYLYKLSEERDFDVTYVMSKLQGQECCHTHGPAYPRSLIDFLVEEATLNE
Test: PBM E-score (8-mer binding enrichment) (E-score (-0.5 to 0.5)); higher = stronger / more preferred TF binding
Settings: protein concentration: 100 nM; construct: GST-full length
Procedure, shortened: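 GST-tagged yeast TFs (full-length or DNA-binding domain) were made by PURExpress in vitro transcription/translation and applied at about 100-200 nM to universal all-10-mer Agilent arrays. The arrays were made double-stranded by primer extension, on fresh or once-stripped slides. Bound protein was detected with fluorescent anti-GST, and scans were normalised with masliner. Each ungapped eight-base word, pooled with its reverse complement, received an E-score (modified Wilcoxon-Mann-Whitney statistic) from the Universal PBM Analysis Suite.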

Sequence	PBM E-score
CGCTGCCC	-0.264
CGGACCCC	-0.296
ACATCAGC	0.0153
CTTGGGTA	0.0519
ATCGGCGG	0.0794
GACTAGAA	0.192
GTATCAGA	-0.0367
GGACTGCA	-0.11
CAGTTGTC	-0.00619
TATAGGAA	0.118
GACTCACC	-0.153
GCCACTCA	0.0112
CTTCGAAC	0.051
AATCGAAC	0.107
AGCCTGCG	-0.221
GTCCCCAC	-0.322
GAGTGGTA	-0.00418
ATGTCAAT	0.01
ATCCCATC	0.0509
ATTTGGGA	0.0914
ACGTGCCT	-0.191
ATCTTCGG	0.114

Sequence	PBM E-score
GTTACAAC	0.154
AAACTAAT	0.272
CCCTAGAG	-0.143
GCCTATCC	-0.0822
GATTCGGC	-0.0169
ATCAAAGA	-0.0195
GTAGCTCA	-0.0882
TAACGACA	0.0893
ATCGACAA	0.126
ATTGCAAT	0.283
AGGATGGA	-0.0875
AGTACCCC	-0.214
ATATTAGG	0.209
ACGTTCAA	-0.00344
GGATAACA	0.116
AGCATGTC	-0.0745
CCGGGAGC	-0.337
CGACAAGC	-0.206
CAACATCC	0.024
CGCTGTGC	-0.111
ACATCAAT	0.109
CAAACCAC	-0.042

A different layout for part of the listing above:
Sequence | PBM E-score
ATGTCAAT | 0.01
ATTTGGGA | 0.0914
ACGTGCCT | -0.191
ATCTTCGG | 0.114
AAACTAAT | 0.272
CCCTAGAG | -0.143
GCCTATCC | -0.0822
GATTCGGC | -0.0169
ATCAAAGA | -0.0195
GTAGCTCA | -0.0882
TAACGACA | 0.0893
ATCGACAA | 0.126
ATTGCAAT | 0.283
AGGATGGA | -0.0875
AGTACCCC | -0.214
ATATTAGG | 0.209
ACGTTCAA | -0.00344
GGATAACA | 0.116
AGCATGTC | -0.0745
CCGGGAGC | -0.337
CGACAAGC | -0.206
CGCTGTGC | -0.111
ACATCAAT | 0.109
CAAACCAC | -0.042

(further entries)

Sequence	PBM E-score
GAAGTTAA	-0.0178
CCAAAGTA	0.00764
AGGCTGAG	-0.0282
ACAACTGC	0.0481
AAATACAT	0.154
ATGATCTG	0.0526
AGGGACCT	-0.11
GAGCTAAA	-0.189
TCCTGCCA	-0.136
AAATTGAT	0.165
ATTTGTGA	0.0681
CCTGATCG	-0.11
ACGGGTCA	-0.293
ATGGAAAA	0.213
ACCTCCAA	-0.153
AATAACAC	0.288
GACCAAGC	-0.00162
CCACCAAG	-0.128
AAACCCAG	0.0487
ACATCAAC	0.196
GAAAAGGA	0.0543
ATAGCCAG	-0.00681

Sequence	PBM E-score
GGACAAAC	-0.0146
ATCAATGC	0.0129
AACATCCA	0.0691
TATGACAA	0.123
CAATCAGG	0.0129
GCCGGCCC	-0.24
GACTGTCC	-0.203
CAAGCTTA	0.0342
GGGAAAAC	0.0844
GGGACAAC	-0.0271
CGTTAATA	0.197
ATTAAGTA	0.237
CGGTTAGC	-0.185
ATTGCAAA	0.0883
ACCATTCG	-0.0762
CGTAAGTC	0.153
GAGTATAC	0.0677
GTGCCCAA	-0.0496
ACGGTCTG	-0.171
CAATACGA	0.138
